These are yes or no findings as the source states them, for the method shown. Binding calls can cover weak binding; strength is not graded here. Tags and fused reporters may be left off the sequences shown.
Molecular target: BD-EgTR2 (full-length EgTR2 fused to the Gal4 DNA binding domain) (E. granulosus s.s.)
Assay: two-hybrid; Gal4 system; activation-domain (pGADT7) and DNA-binding-domain (pGBKT7) fusions co-transformed into yeast Y2HGold; selective media, 5 days at 30°C; high stringency SD/-Trp/-Leu/-Ade/-His/X-α-gal/AbA, low stringency SD/-Trp/-Leu/X-α-gal/AbA

B1: AD-HsBMP2 (human BMP2 fused to the Gal4 activation domain) (ligand, UniProt P12643 1-396)
chain: MVAGTRCLLALLLPQVLLGGAAGLVPELGRRKFAAASSGRPSSQPSDEVLSEFELRLLSMFGLKQRPTPSRDAVVPPYMLDLYRRHSGQPGSPAPDHRLERAASRANTVRSFHHEESLEELPETSGKTTRRFFFNLSSIPTEEFITSAELQVFREQMQDALGNNSSFHHRINIYEIIKPATANSKFPVTRLLDTRLVNQNASRWESFDVTPAVMRWTAQGHANHGFVVEVAHLEEKQGVSKRHVRISRSLHQDEHSWSQIRPLLVTFGHDGKGHPLHKREKRQAKHKQRKRLKSSCKRHPLYVDFSDVGWNDWIVAPPGYHAFYCHGECPFPLADHLNSTNHAIVQTLVNSVNSKIPKACCVPTELSAISMLYLDENEKVVLKNYQDMVVEGCGCR
In the case of B1, the binding is reported as “binds”.

— paper PMC12772319
